Experiment [1] has as its target 14-3-3 protein beta/alpha (UniProt P31946). The experiment in a line: antibody affinity column on KMC07 whole cell extract, mass analysis.
Experiment [2] has the same target. Kind of experiment: antibody affinity column on KMC07 whole cell extract, silver staining, mass analysis of the eluted band; filing considers it non-specific.

The chains behind the UniProt entries cited, without tags or fusion partners. Residues count along the entry.
UniProt P31946, residues 2-246: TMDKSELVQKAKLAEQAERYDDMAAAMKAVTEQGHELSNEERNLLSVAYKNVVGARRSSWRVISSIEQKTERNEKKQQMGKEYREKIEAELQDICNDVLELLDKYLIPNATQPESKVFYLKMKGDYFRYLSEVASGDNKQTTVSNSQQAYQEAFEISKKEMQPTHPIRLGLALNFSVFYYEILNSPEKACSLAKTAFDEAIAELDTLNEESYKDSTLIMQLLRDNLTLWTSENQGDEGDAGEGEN

Substitutions are numbered along the chain they refer to. Results are given in words; binding and its absence hold for the method and conditions named. Some binding calls cover weakened binding; strength is not graded here.

B1: 1B4G4 (antibody I) (antibody, IgG2b, V domains shown)
VH: QVQLKESGPGLVQPSQTLSLTCTVSGFSLSSYGVIWVRQPPGKGLEWMGLIWDNGNTNYNSALKSRLSISRDTSKSQVFLKMNNLQTEDTAMYFCARSRHYFDYWGQGVMVTVSS
VL: DIQMTQSPSLLSASVGDRVTLNCKASQNIYKILAWYQQKLGEAPKLLIYNADSLQTGIPSRFSGSGSGTDFTLTISSLQPEDVATYFCQQYYSGWTFGGGTKLELK
In the case of B1, the binding entry in experiment [1] and in experiment [2] was “binds” in each case.

B2: 1E7G5 (antibody I) (antibody, IgG2b, V domains shown)
VH: B1 VH with N56D, N60C, A62P
VL: B1 VL with I32N, L46F, D52N
In the case of B2, the binding entry in experiment [1] and in experiment [2] was “binds” in each case.

Values taken from US20240190992A1 (UNIVERSITY PUBLIC CORPORATION OSAKA, published 2024).
